Laboratory results from US20230322857A1, “RECOMBINANTLY ENGINEERED POLYPEPTIDES CAPABLE OF RECYCLING NONCANONICAL COFACTORS” (The Regents of the University of California, priority 2022, published 2023).
At least one read-out could not be matched to a standard name with certainty.

How the values were obtained:
Assay type in all cases: biochemical
Details in all cases: 96 mM Tris-Cl buffer pH 7.5, 2.5 mM GSSG, varied cofactor concentrations; n = 3
[1] = Steady state kinetics of glutathione reductase (Gor) variants with NADH
Procedure: (§1) Expression and Purification of Gor Wild-type and Variants. E. coli Gor (EC 1.6.4.2) is a homo-dimeric flavoenzyme containing 450 amino acid residues with 1 FAD per subunit. To prevent interference from endogenous protein, Gor wild-type and variants were expressed using E. coli Δgor::kan strain containing pQElac based plasmids encoding for the Gor wild-type or variants. 1% (v/v) cells from an overnight culture were cultured in 2×YT media with 200 μg/mL ampicillin and 50 μg/mL kanamycin in shake flasks at 37° C. in a rotary shaker to an OD600 of 0.4-0.6. The cultures were then induced with 0.5 mM IPTG and incubated at 30° C. with shaking for 24 h. The cells were harvested with centrifugation and lysed by bead beating with Zymo His Binding Buffer (Zymo Research, CA, USA). Protein purification was performed with Zymo His-Spin Protein miniprep purification kit according to the manufacturer's instructions. The concentrations of purified protein were quantified by Coomassie dye—based assays (Bradford) using BSA (Bovine Serum Albumin) as standards.
(§2) Specific Activity and Steady State Kinetic Analyses for Gor Wild-type and Variants. The specific activity and kinetic parameters of Gor with the different cofactors, shown in FIG. 1, were measured using the following methods. […] The kinetic parameters were measured by monitoring the NAD(P)H consumption at 340 nm in 96-well plate. […]

[2] = Steady state kinetics of glutathione reductase (Gor) variants with NMNH
Procedure: as §1, §2

[3] = Steady state kinetics of glutathione reductase (Gor) variants with NADPH
Procedure: as §1, §2

B1: Gor I178T (protein, UniProt P06715 1-450, looked up, variant I178T)
Glutathione reductase: MTKHYDYIAIGGGSGGIASINRAAMYGQKCALIEAKELGGTCVNVGCVPKKVMWHAAQIREAIHMYGPDYGFDTTINKFNWETLIASRTAYIDRIHTSYENVLGKNNVDVIKGFARFVDAKTLEVNGETITADHILIATGGRPSHPDIPGVEYGIDSDGFFALPALPERVAVVGAGYTAVELAGVINGLGAKTHLFVRKHAPLRSFDPMISETLVEVMNAEGPQLHTNAIPKAVVKNTDGSLTLELEDGRSETVDCLIWAIGREPANDNINLEAAGVKTNEKGYIVVDKYQNTNIEGIYAVGDNTGAVELTPVAVAAGRRLSERLFNNKPDEHLDYSNIPTVVFSHPPIGTVGLTEPQAREQYGDDQVKVYKSSFTAMYTAVTTHRQPCRMKLVCVGSEEKIVGIHGIGFGMDEMLQGFAVALKMGATKKDFDNTVAIHPTAAEEFVTMR
In the case of B1, the “NADH kcat/Km” value [1] is reported as 90 ± 10 M⁻¹ s⁻¹, the “NMNH kcat/Km” value [2] is reported as 14 ± 3 M⁻¹ s⁻¹ and the “NADPH kcat/Km” value [3] is reported as 874000 ± 160000 M⁻¹ s⁻¹.
